In patent publication US20170304288A1, “Formulations of Methionine Aminopeptidase Inhibitors for Treating Infectious Diseases” (Texas Southern University, priority 2013, published 2017):
Some results were stated once for a whole list of compounds, not compound by compound.

Molecular target: Wild-type L. major promastigotes
Experiment: Leishmania major luciferase assay, wild type promastigotes

O=C(N/N=C/c1c(O)ccc2ccccc12)c1ccncc1 [Compound 1, 2-hydroxy-1-naphthylaldehyde isonicotinoyl hydrazone]
Wild-type L. major promastigotes EC50: lower micromolar range

Oc1ccccc1/C=N/Nc1ncnc2sc3c(c12)CCCC3 [Compound 2, 2-{(E)-[2-(5,6,7,8-tetrahydro[1]benzothieno[2,3-d]pyrimidin-4-yl)hydrazinylidene]methyl}phenol]
Wild-type L. major promastigotes EC50: lower micromolar range

Cc1nc(-c2ccccn2)nc(N(C)Cc2ccccc2)c1Cl [Compound 3, N-benzyl-5-chloro-N,6-dimethyl-2-(pyridin-2-yl)pyrimidin-4-amine]
Wild-type L. major promastigotes EC50: lower micromolar range
